Assay results published in PubChem BioAssay AID504834 (National Center for Advancing Translational Sciences (NCATS), 2011).
In all, about 320,000 compounds went through this assay and about 22,000 (6.9%) were called active. The shares of active, inactive and inconclusive entries below differ from those in the screen. Calls follow the shape of the dose curve; as a rule, active = well fitted inhibition curve with a large enough effect; inconclusive = small, poorly fitted or top-dose-only effect, or another doubt; inactive = no such curve, though single readings can be large or run the other way. A potency beside an inconclusive call is a rough fit, not a confirmed value.

assay: Primary qHTS for delayed death inhibitors of the malarial parasite plastid, 96 hour incubation; conditions: P. falciparum luciferase reporter growth; series mostly up to 28.7 µM
Procedure, shortened: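 Erythrocytes infected with luciferase-expressing P. falciparum were dispensed at 2% hematocrit and 0.05% parasitemia (final), then incubated with compounds 96 hours at 37 C in 5% CO2. Luminescence after detection reagent addition reported growth.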
Potency is read from the fitted curve at half-maximal effect.

Compound	Potency
CCCOc1ccccc1N1C(=O)CC(N2CCOCC2)C1=O (configuration not stated)	inactive
CCOC(=O)/C=C/[C@H]1CC(c2ccccc2)(c2ccccc2)CO1	inconclusive: 8.28 µM [inhibitor, partial curve, poor fit]
Cc1ccc(S(=O)(=O)N2CCOCC2)cc1C(=O)NCc1ccccc1CN1CCCC1	inconclusive: 10.4 µM [inhibitor, partial curve]
COc1ccc(Cl)cc1C(=O)NCc1ccco1	inactive
Cc1[nH]c(=O)[nH]c(=O)c1S(=O)(=O)N1CCC(C(=O)N2CCN(Cc3ccccc3)CC2)CC1	inconclusive: 6.57 µM [inhibitor, partial curve]
O=C(CSc1cn(CC(=O)N2CCCCCC2)c2ccccc12)NCC1CCCO1 (configuration not stated)	inconclusive: 18.5 µM [inhibitor, single point]
C/C(=N\NC(=O)c1nn(C)c(C)c1Br)c1ccc(NC(=O)c2ccoc2C)cc1	inactive
COc1ccc(OC)c(S(=O)(=O)Nc2cccnc2)c1	inactive
CC1=C(C(N)=O)C(c2ccc(F)cc2)n2nc(CCCO)nc2N1 (configuration not stated)	inactive
COc1ccc(NC(=O)CSc2nc3ccccc3nc2N2CCCC2)c(OC)c1	inactive
O=[N+]([O-])c1ccc(N2CCOCC2)cn1	inconclusive: 18.5 µM [inhibitor, single point]
CCc1cc2c(=O)[nH]c(CC(N)=O)nc2s1	inactive
O=C(COc1ccc(S(=O)(=O)N2CCCC2)cc1[N+](=O)[O-])N1CCCC1	inconclusive: 13.1 µM [inhibitor, single point]
COc1cccc(NC(=O)Cn2c3ccc(OC)cc3c3nc4n(c(=O)c32)CCS4)c1	inactive
CCSc1nnc(NC(=O)C2CC(=O)N(Cc3ccccc3)C2)s1 (configuration not stated)	inconclusive: 1.47 µM [inhibitor, full curve, poor fit]
CN1CCN(c2ccc([N+](=O)[O-])c(N/N=C3\CN4CCC3CC4)c2)CC1	inconclusive: 6.57 µM [inhibitor, partial curve]
N/C(=N\OC(=O)CC1CCCCC1)c1ccncc1	inconclusive: 18.5 µM [inhibitor, single point]
O=C(NCc1cccc(Cl)c1)C1CCC(=O)N(CCCN2CCOCC2)C1 (configuration not stated)	inactive
CC(C)CCNC(=O)CCc1nnc(Cc2c[nH]c3ccccc23)o1	inconclusive: 11.7 µM [inhibitor, single point]
O=C(Nc1nccs1)c1cc2sccc2n1Cc1ccc(Cl)cc1	inconclusive: 16.5 µM [inhibitor, partial curve, poor fit]
N#C/C(=C/c1ccncc1)c1nc2ccccc2c(=O)[nH]1	inconclusive: 11.7 µM [inhibitor, single point]
O=C(Cc1noc2ccccc12)Nc1ccccn1	inactive
Cc1ccc(-n2nc(C)c3c(C)c(CCC(=O)NCC4CCCO4)c(=O)n(C)c32)cc1 (configuration not stated)	inconclusive: 18.5 µM [inhibitor, single point]
CSC1=NC(C)(C)C=C(/C=C/c2ccc(Cl)cc2)N1	inconclusive: 5.86 µM [inhibitor, partial curve, poor fit]

Compound	Potency
COC(=O)C(Cc1ccccc1)NC(=O)COc1ccc(C(C)(C)C)cc1 (configuration not stated)	inactive
COc1cc(NC(=O)CN(C)S(=O)(=O)c2ccc(-c3ccc(=O)[nH]n3)s2)cc(OC)c1	inactive
OCC1(Cc2ccccc2)CCCN(Cc2c[nH]c3ccccc23)C1 (configuration not stated)	inconclusive: 18.5 µM [inhibitor, single point]
CCCNC(=O)Nc1ccc(C(F)(F)F)cc1	inconclusive: 18.5 µM [inhibitor, single point]
CCO[C@@H]1OC(C(=O)N2CCN(Cc3ccc4c(c3)OCO4)CC2)=C[C@H](c2cn(C(C)=O)c3ccccc23)[C@H]1CCCO	active: 4.15 µM
COC(=O)c1ccc(NC(=O)Nc2ccc(F)c(Cl)c2)cc1	inactive
COc1cccc(OC(=O)c2cc3ccccc3oc2=O)c1	inconclusive: 0.117 µM [inhibitor, full curve, poor fit]
Cc1cc(OCc2cc(C(=O)NCCN3CCCCC3CO)no2)cc(C)c1Cl (configuration not stated)	inconclusive: 18.5 µM [inhibitor, single point]
Cc1nn(C)cc1C(C)NCc1c(C(=O)N2CCCCCCC2)nc2ccc(Cl)cn12 (configuration not stated)	inactive
Cc1cc(C(=O)N/N=C/c2cccc([N+](=O)[O-])c2)c(C)n1-c1ccccc1	inconclusive: 18.5 µM [inhibitor, single point]
Cc1onc(-c2c(F)cccc2Cl)c1C(=O)Nc1ccccc1N1CCOCC1	active: 2.62 µM
C=CCn1c(SCC(=O)NC2CCCC2)nnc1-c1cccnc1	inactive
CC(=O)N1N=C(c2cccc([N+](=O)[O-])c2)OC1c1ccccc1Cl (configuration not stated)	inactive
CCCCn1c(-c2c(Cl)c(C)nn2C)n[nH]c1=S	inconclusive: 4.65 µM [inhibitor, single point]
O=c1cc(-c2cccc(Cl)c2)oc2cccc(O)c12	inconclusive: 18.5 µM [inhibitor, single point]
CCOc1cc(/C=N/N=C/c2ccc(O)c(OCC)c2)ccc1O	inactive
Cc1ccc(N2CC(C(=O)Nc3nnc(SCCN4CCOCC4)s3)CC2=O)cc1C (configuration not stated)	inconclusive: 11.7 µM [inhibitor, single point]
CN(C)C(=O)COc1ccc2ccc(=O)oc2c1	inactive
Cc1ccc(NC(=S)Nc2ccc(Cl)c(Cl)c2)c(OC(F)F)c1	active: 4.15 µM
CCOC(CC(=O)NNC(=O)c1c(-c2c(Cl)cccc2Cl)noc1C)OCC	inconclusive: 10.4 µM [inhibitor, partial curve, poor fit]
Cc1ccc(-c2cc(C(=O)NCCCN3CCCC3)c3ccccc3n2)cc1C	inconclusive: 10.4 µM [inhibitor, single point]
C/C(=N\NC(=O)c1c(Cl)c(C)nn1C)c1ccc(NC(=O)c2ccncc2)cc1	inconclusive: 0.0928 µM [inhibitor, full curve, poor fit]
CC(C)n1c(O)c(N=NC(=O)c2ccccc2NS(=O)(=O)c2cccs2)c2ccccc21	inconclusive: 18.5 µM [inhibitor, single point]

Copied from the list:
Value of CCc1cc2c(=O)[nH]c(CC(N)=O)nc2s1 under Potency: inactive
Value of Cc1cc(C(=O)N/N=C/c2cccc([N+](=O)[O-])c2)c(C)n1-c1ccccc1 under Potency: inconclusive: 18.5 µM [inhibitor, single point]
Value of CCOC(=O)/C=C/[C@H]1CC(c2ccccc2)(c2ccccc2)CO1 under Potency: inconclusive: 8.28 µM [inhibitor, partial curve, poor fit]
